The list shows only some results of the screen, not a fair sample: it gathers tests that were run many times, whatever their T/C, doses with no T/C, and many T/C values between a quarter and a half above the control. Further doses and runs are listed elsewhere. T/C: endpoint of the treated group in % of that of the vehicle group. Some doses have a count of surviving animals in place of a T/C: the source holds a T/C of zero for them, seemingly a mark for toxic or unscored doses. Some survivor counts are full or nearly so, which does not show that the dose was tolerated: survival well below the control is almost never listed, so the zero probably covers shortened survival too. Counts of survivors are from the toxicity check (mostly the fifth day) where no day follows; animals may have died later. Schedule codes are those of the source, taken here to give the interval after Q, in days (D) or hours (H), and the number of doses after X. Additions like (4×) count equal records among those shown. Some entries hold several experiments; their values stand side by side, smallest first. For survival time, the PubChem record calls one and a half times the control and up active, and a quarter to a half above the control has no call in these data; cut-offs in other NCI protocols can differ. Some T/C values are followed by the survivors on the day toxicity was checked, most often the fifth; without a count, all were alive then.
Tested on: L1210 leukemia ip in BDF1 mice, survival T/C
Assay: NCI In Vivo Anticancer Drug Screen. Data for tumor model L1210 Leukemia (intraperitoneal) in B6D2F1 (BDF1) mice
Conditions: T/C endpoint: mean survival time, higher T/C = longer survival
[1] = dose: 200.0 mg/kg/injection, schedule: Q04DX003 (ip), vehicle: saline
[2] = dose: 400.0 mg/kg/injection, schedule: Q04DX003 (ip), vehicle: saline
[3] = dose: 400.0 mg/kg/injection, schedule: Q04DX003 (ip), vehicle: Klucel (hydroxypropylcellulose) (HPC)
[4] = dose: 200.0 mg/kg/injection, schedule: Q01DX001 (ip), vehicle: carboxymethylcellulose (CMC)
[5] = dose: 200.0 mg/kg/injection, schedule: Q01DX001 (ip), vehicle: saline
[6] = dose: 400.0 mg/kg/injection, schedule: Q01DX001 (ip), vehicle: carboxymethylcellulose (CMC)
[7] = dose: 260.0 mg/kg/injection, schedule: Q04DX003 (ip), vehicle: saline

Structure (SMILES): CC(CN1CCN(CCOCCO)CC1)CN1c2ccccc2Sc2ccccc21 (centres undefined)
- survivor count (dose: 50.0 mg/kg/injection, schedule: Q01DX009 (ip), vehicle: saline): 3 of 6
- survivor count (dose: 100.0 mg/kg/injection, schedule: Q04DX003 (ip), vehicle: saline): 2 of 4
- survivor count [1]: 0 of 4
- survivor count [2]: 0 of 4

Structure (SMILES): C/C=C/C(=O)Nc1cccc(Cl)c1
- survivor count (dose: 400.0 mg/kg/injection, schedule: Q01DX009 (ip), vehicle: other): 0 of 6

Structure (SMILES): O=c1ccc2ccccc2[nH]1
- survivor count (dose: 400.0 mg/kg/injection, schedule: Q01DX001 (ip), vehicle: other): 1 of 4

Structure (SMILES): O=C(NCCCOc1ccc([N+](=O)[O-])cc1)OCc1ccccc1
- survivor count [3]: 1 of 6

Structure (SMILES): Cc1ccc(C)c(N2CCN(c3ccncc3N)CC2)c1
- survivor count (dose: 300.0 mg/kg/injection, schedule: Q01DX009 (ip), vehicle: saline with Tween-80): 0 of 6

Structure (SMILES): CCOc1cc(C=Nc2cc(Cl)c(O)c(Cl)c2)ccc1N(CCCl)CCCl
- T/C (dose: 10.0 mg/kg/injection, schedule: Q01DX009 (ip), vehicle: carboxymethylcellulose (CMC)): 127 % of control
- T/C (dose: 20.0 mg/kg/injection, schedule: Q01DX009 (ip), vehicle: carboxymethylcellulose (CMC)): 129 and 133 % of control
- T/C (dose: 20.0 mg/kg/injection, schedule: Q01DX009 (ip), vehicle: saline): 127 % of control
- T/C (dose: 30.0 mg/kg/injection, schedule: Q01DX009 (ip), vehicle: carboxymethylcellulose (CMC)): 147 % of control
- survivor count (dose: 40.0 mg/kg/injection, schedule: Q01DX009 (ip), vehicle: saline): 5 of 6
- T/C (dose: 44.0 mg/kg/injection, schedule: Q01DX001 (ip), vehicle: carboxymethylcellulose (CMC)): 127 % of control
- T/C (dose: 66.0 mg/kg/injection, schedule: Q01DX001 (ip), vehicle: carboxymethylcellulose (CMC), evaluated on day 30): 134 % of control
- T/C (dose: 66.0 mg/kg/injection, schedule: Q01DX001 (ip), vehicle: carboxymethylcellulose (CMC), run until all animals had died): 132 % of control
- survivor count (dose: 66.0 mg/kg/injection, schedule: Q01DX009 (ip), vehicle: other): 2 of 6
- T/C (dose: 100.0 mg/kg/injection, schedule: Q01DX001 (ip), vehicle: carboxymethylcellulose (CMC), evaluated on day 30): 138 % of control
- T/C (dose: 100.0 mg/kg/injection, schedule: Q01DX001 (ip), vehicle: carboxymethylcellulose (CMC), run until all animals had died): 135 % of control
- T/C (dose: 100.0 mg/kg/injection, schedule: Q01DX001 (ip), vehicle: saline): 136 % of control [5 of 6 alive]
- survivor count (dose: 100.0 mg/kg/injection, schedule: Q01DX009 (ip), vehicle: other): 0 of 6
- T/C (dose: 150.0 mg/kg/injection, schedule: Q01DX001 (ip), vehicle: carboxymethylcellulose (CMC), evaluated on day 30): 139 % of control
- T/C (dose: 150.0 mg/kg/injection, schedule: Q01DX001 (ip), vehicle: carboxymethylcellulose (CMC), run until all animals had died): 135 % of control
- survivor count (dose: 150.0 mg/kg/injection, schedule: Q01DX009 (ip), vehicle: other): 0 of 6
- survivor count [4]: 0 of 4
- survivor count [5]: 0 of 6
- survivor count [6]: 0 of 4

Structure (SMILES): CCC1COC(=O)N1 (centres undefined)
- survivor count (dose: 100.0 mg/kg/injection, schedule: Q01DX009 (ip), vehicle: saline): 1 of 6
- survivor count [5]: 0 of 6

Structure (SMILES): CCCCN(C)/N=N/c1nc[nH]c1C(N)=O
- T/C (dose: 12.0 mg/kg/injection, schedule: Q01DX009 (ip), vehicle: other): 127 % of control
- T/C (dose: 21.0 mg/kg/injection, schedule: Q01DX009 (ip), vehicle: other): 132 % of control
- T/C (dose: 24.5 mg/kg/injection, schedule: Q01DX009 (ip), vehicle: saline with Tween-80): 128 % of control
- T/C (dose: 40.0 mg/kg/injection, schedule: Q01DX009 (ip), vehicle: carboxymethylcellulose (CMC)): 128 % of control
- T/C (dose: 60.0 mg/kg/injection, schedule: Q01DX009 (ip), vehicle: carboxymethylcellulose (CMC)): 135 % of control
- T/C (dose: 80.0 mg/kg/injection, schedule: Q01DX009 (ip), vehicle: carboxymethylcellulose (CMC)): 146 % of control
- T/C (dose: 133.0 mg/kg/injection, schedule: Q01DX001 (ip), vehicle: other): 129 % of control
- T/C (dose: 200.0 mg/kg/injection, schedule: Q01DX001 (ip), vehicle: other): 140 and 141 % of control
- T/C (dose: 212.0 mg/kg/injection, schedule: Q01DX001 (ip), vehicle: saline with Tween-80): 130 % of control
- T/C (dose: 300.0 mg/kg/injection, schedule: Q01DX001 (ip), vehicle: carboxymethylcellulose (CMC)): 131 % of control
- T/C (dose: 300.0 mg/kg/injection, schedule: Q01DX001 (ip), vehicle: other): 126 % of control

Structure (SMILES): CCc1nc(N)nc(N)c1-c1ccc(Cl)cc1.[O]=[Zn]
- survivor count [6]: 0 of 6

Structure (SMILES): CCN(CCO)CCNc1ccc(C)c2sc3ccccc3c(=O)c12
- T/C (dose: 26.0 mg/kg/injection, schedule: Q03HX024 (ip), vehicle: saline): 136 % of control
- T/C (dose: 40.0 mg/kg/injection, schedule: Q03HX024 (ip), vehicle: saline): 140 % of control
- survivor count (dose: 60.0 mg/kg/injection, schedule: Q03HX024 (ip), vehicle: saline): 9 of 9
- T/C (dose: 78.0 mg/kg/injection, schedule: Q01DX001 (ip), vehicle: saline): 141 % of control
- T/C (dose: 90.0 mg/kg/injection, schedule: Q01DX009 (ip), vehicle: saline): 145 % of control
- survivor count (dose: 90.0 mg/kg/injection, schedule: Q03HX024 (ip), vehicle: saline): 9 of 10
- survivor count (dose: 135.0 mg/kg/injection, schedule: Q03HX024 (ip), vehicle: saline): 10 of 10
- T/C (dose: 260.0 mg/kg/injection, schedule: Q01DX001 (ip), vehicle: saline): 148 % of control [9 of 10 alive]
- T/C [7]: 135 % of control [7 of 10 alive]
- survivor count [7]: 9 of 10
- survivor count (dose: 390.0 mg/kg/injection, schedule: Q01DX001 (ip), vehicle: saline): 4 of 10
- survivor count (dose: 390.0 mg/kg/injection, schedule: Q04DX003 (ip), vehicle: saline): 3 of 10
- survivor count (dose: 400.0 mg/kg/injection, schedule: Q01DX001 (ip), vehicle: saline): 0 of 4 and 3 of 10
- survivor count [2]: 0 of 10
- survivor count (dose: 600.0 mg/kg/injection, schedule: Q01DX001 (ip), vehicle: saline): 0 of 10
- survivor count (dose: 600.0 mg/kg/injection, schedule: Q04DX003 (ip), vehicle: saline): 0 of 10
- survivor count (dose: 900.0 mg/kg/injection, schedule: Q01DX001 (ip), vehicle: saline): 0 of 10
- survivor count (dose: 900.0 mg/kg/injection, schedule: Q04DX003 (ip), vehicle: saline): 0 of 10
- survivor count (dose: 1350.0 mg/kg/injection, schedule: Q01DX001 (ip), vehicle: saline): 0 of 10
- survivor count (dose: 1350.0 mg/kg/injection, schedule: Q04DX003 (ip), vehicle: saline): 0 of 10

Structure (SMILES): CC(C)(C)C1CCC(N)CC1 (centres undefined)
- survivor count (dose: 100.0 mg/kg/injection, schedule: Q01DX001 (ip), vehicle: carboxymethylcellulose (CMC)): 0 of 4
- survivor count [4]: 0 of 4
- survivor count [6]: 0 of 4

Structure (SMILES): CNC(C)Cc1ccccc1 (centres undefined)
- survivor count (dose: 60.0 mg/kg/injection, schedule: Q01DX009 (ip), vehicle: saline): 1 of 6
- survivor count (dose: 120.0 mg/kg/injection, schedule: Q01DX009 (ip), vehicle: saline): 0 of 6 (2×)
- survivor count (dose: 120.0 mg/kg/injection, schedule: Q04DX003 (ip), vehicle: saline): 1 of 6
- survivor count (dose: 240.0 mg/kg/injection, schedule: Q01DX009 (ip), vehicle: saline): 0 of 6 (2×)
- survivor count (dose: 240.0 mg/kg/injection, schedule: Q04DX003 (ip), vehicle: saline): 0 of 6

Structure (SMILES): O=C(O)CCc1nn(-c2ccccc2)c(=O)c2ccccc12
- survivor count (dose: 400.0 mg/kg/injection, schedule: Q04DX002 (ip), vehicle: Klucel (hydroxypropylcellulose) (HPC)): 3 of 3

Structure (SMILES): C=CCOC(=O)Oc1ccccc1Cl
- survivor count (dose: 400.0 mg/kg/injection, schedule: Q01DX009 (ip), vehicle: Klucel (hydroxypropylcellulose) (HPC)): 0 of 6
- survivor count [3]: 6 of 6

Structure (SMILES): CCN(CC)CCOc1ccccc1C(C)C
- survivor count [1]: 1 of 6
- survivor count [2]: 0 of 6

Reference: PubChem BioAssay AID248 (DTP/NCI, 2004)
